Values from PubChem BioAssay AID1259425 (University of Nebraska Medical Center, 2018).
Here is one part, drawn at random, of about 14,000 reagents tested. The record does not give: the time to read-out.

Test: 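Compare each knockdown with KSR1 silencing using changes in marker transcripts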 (primary screen)
Cells: HCT116 human colon cancer cells
Reagent: siRNA pool against human genes, 50 nM siRNA
Detection: 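After 50 nM siRNA pool, branched-DNA assay measures six marker transcripts per well, minus blank, normalised to the geometric mean of two housekeeping transcripts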
Scale: BNIP3L mRNA: higher = more BNIP3L transcript after knockdown; NDRG1 mRNA: higher = more NDRG1 transcript after knockdown; BNIP3 mRNA: higher = more BNIP3 transcript after knockdown; ALDOC mRNA: higher = more ALDOC transcript after knockdown; ACSL5 mRNA: higher = more ACSL5 transcript after knockdown

gene | BNIP3L mRNA, set 1 | NDRG1 mRNA, set 1 | BNIP3 mRNA, set 1 | ALDOC mRNA, set 1 | ACSL5 mRNA, set 1
OGFOD1 | 0.117 | 0.361 | 0.362 | 0.0266 | 0.12
CAMTA2 (calmodulin binding transcription activator 2) | 0.0738 | 0.102 | 0.293 | 0.0109 | 0.105
KLF5 (KLF transcription factor 5) | 0.109 | 0.0708 | 0.426 | 0.00718 | 0.0906
SEMA7A (semaphorin 7A (JohnMiltonHagen blood group)) | 0.23 | 0.173 | 0.284 | 0.0573 | 0.247
PAGR1 (PAXIP1 associated glutamate rich protein 1) | 0.1 | 0.175 | 0.392 | 0.0398 | 0.198
OR1C1 (olfactory receptor family 1 subfamily C member 1) | 0.119 | 0.119 | 0.338 | 0.0615 | 0.149
ZNF638 (zinc finger protein 638) | 0.0836 | 0.151 | 0.244 | 0.0235 | 0.0942
SIPA1 (signal-induced proliferation-associated 1) | 0.0879 | 0.114 | 0.241 | 0.00669 | 0.159
SLC7A5 | 0.112 | 0.225 | 0.216 | 0.0192 | 0.0996
RDH14 (retinol dehydrogenase 14) | 0.106 | 0.158 | 0.317 | 0.0254 | 0.268
GSDMC (gasdermin C) | 0.177 | 0.163 | 0.342 | 0.0471 | 0.183
FDPSP3 (farnesyl diphosphate synthase pseudogene 3) | 0.153 | 0.38 | 0.39 | 0.0222 | 0.198
DDR2 (discoidin domain receptor tyrosine kinase 2) | 0.0614 | 0.167 | 0.149 | 0.00429 | 0.184
PLS3 (plastin 3) | 0.11 | 0.471 | 0.32 | 0.0276 | 0.182
PPP1R17 (protein phosphatase 1 regulatory subunit 17) | 0.164 | 0.112 | 0.457 | 0.0111 | 0.415
GNB3 (G protein subunit beta 3) | 0.105 | 0.299 | 0.453 | 0.104 | 0.3
MINAR1 (membrane integral NOTCH2 associated receptor 1) | 0.144 | 0.0323 | 0.199 | 0.0257 | 0.0962
MPP1 (MAGUK p55 scaffold protein 1) | 0.174 | 0.175 | 0.319 | 0.0103 | 0.215
MSH2 (mutS homolog 2) | 0.128 | 0.111 | 0.395 | 0.0193 | 0.149
WAC (WW domain containing adaptor with coiled-coil) | 0.827 | 2.97 | 3.58 | 0.525 | 0.134
SETD4 (SET domain containing 4) | 0.341 | 0.165 | 0.299 | 0.065 | 0.223
NEUROG2 (neurogenin 2) | 0.147 | 0.236 | 0.3 | 0.0732 | 0.191
RNF135 (ring finger protein 135) | 0.256 | 0.373 | 0.305 | 0.245 | 0.4
PRSS1 (serine protease 1) | 0.1 | 0.119 | 0.232 | 0.0318 | 0.0839
ATP6V0E1 (ATPase H+ transporting V0 subunit e1) | 0.0984 | 1.05 | 0.324 | 0.0188 | 0.26
RAB6C (RAB6C, member RAS oncogene family) | 0.0775 | 0.113 | 0.222 | 0.0152 | 0.116
PINK1 (PTEN induced kinase 1) | 0.109 | 0.0962 | 0.245 | 0.00643 | 0.351
GALNT8 (polypeptide N-acetylgalactosaminyltransferase 8) | 0.304 | 0.379 | 0.694 | 0.0921 | 0.207

5 entries from above, arranged by “ALDOC mRNA, set 1”, low to high.
gene | BNIP3L mRNA, set 1 | NDRG1 mRNA, set 1 | BNIP3 mRNA, set 1 | ALDOC mRNA, set 1 | ACSL5 mRNA, set 1
KLF5 (KLF transcription factor 5) | 0.109 | 0.0708 | 0.426 | 0.00718 | 0.0906
CAMTA2 (calmodulin binding transcription activator 2) | 0.0738 | 0.102 | 0.293 | 0.0109 | 0.105
OGFOD1 | 0.117 | 0.361 | 0.362 | 0.0266 | 0.12
PAGR1 (PAXIP1 associated glutamate rich protein 1) | 0.1 | 0.175 | 0.392 | 0.0398 | 0.198
SEMA7A (semaphorin 7A (JohnMiltonHagen blood group)) | 0.23 | 0.173 | 0.284 | 0.0573 | 0.247

The results go on.
gene | BNIP3L mRNA, set 1 | NDRG1 mRNA, set 1 | BNIP3 mRNA, set 1 | ALDOC mRNA, set 1 | ACSL5 mRNA, set 1
QDPR (quinoid dihydropteridine reductase) | 0.137 | 0.11 | 0.415 | 0.0377 | 0.223
NRAS (NRAS proto-oncogene, GTPase) | 0.116 | 0.0878 | 0.324 | 0.0144 | 0.112
BPIFA4P (BPI fold containing family A member 4, pseudogene) | 0.0848 | 0.274 | 0.387 | 0.0773 | 0.148
PSMD10 (proteasome 26S subunit, non-ATPase 10) | 0.0769 | 0.62 | 0.265 | 0.0491 | 0.404
MRPS17 (mitochondrial ribosomal protein S17) | 0.109 | 0.689 | 0.315 | 0.0671 | 0.301
NXF5 (nuclear RNA export factor 5) | 0.119 | 0.179 | 0.39 | 0.0403 | 0.114
ECM1 (extracellular matrix protein 1) | 0.0382 | 0.109 | 0.238 | 0.00859 | 0.0642
PLCL2 (phospholipase C like 2) | 0.189 | 0.312 | 0.35 | 0.144 | 0.316
API5 (apoptosis inhibitor 5) | 0.0379 | 0.0702 | 0.226 | 0.00934 | 0.136
TACO1 (translational activator of cytochrome c oxidase I) | 0.0996 | 0.199 | 0.313 | 0.0166 | 0.16
IL13RA2 (interleukin 13 receptor subunit alpha 2) | 0.0849 | 0.0971 | 0.258 | 0.0231 | 0.12
LSM8 (LSM8 homolog, U6 small nuclear RNA associated) | 0.181 | 0.602 | 0.287 | 0.0436 | 0.205
SRC (SRC proto-oncogene, non-receptor tyrosine kinase) | 0.126 | 0.0638 | 0.282 | 0.00879 | 0.22
TLL2 (tolloid like 2) | 0.0677 | 0.0923 | 0.475 | 0.0281 | 0.184
CKLF (chemokine like factor) | 0.0606 | 0.16 | 0.248 | 0.0378 | 0.148
DCSTAMP (dendrocyte expressed seven transmembrane protein) | 0.137 | 0.2 | 0.389 | 0.0375 | 0.177
TFPT (TCF3 fusion partner) | 0.0729 | 0.268 | 0.266 | 0.0567 | 0.18
XDH (xanthine dehydrogenase) | 0.364 | 0.744 | 0.147 | 0.134 | 0.153
HOXB13 (homeobox B13) | 0.0745 | 0.0954 | 0.243 | 0.000401 | 0.191
PLA2G10 (phospholipase A2 group X) | 0.0843 | 0.565 | 0.227 | 0.0643 | 0.198
EGFR (epidermal growth factor receptor) | 0.0704 | 0.103 | 0.231 | 0.00864 | 0.0889
AKAP11 (A-kinase anchoring protein 11) | 0.315 | 0.108 | 0.59 | 0.00389 | 0.586
